Test results taken from paper PMC9498848.
No constants are given. Whether binding was seen depends on the method and setting. Binding seen in cells or lysates may run through a third protein. Some binding calls cover weakened binding; strength is not graded here. For some of these results: Tags and fused reporters may be left off the sequences shown. One block for each molecule: values may come before it.

Amino acid sequences for entries named in this document (tags omitted). A change or cut given only in a name is not applied to a line headed by its entry.
UniProt P47110: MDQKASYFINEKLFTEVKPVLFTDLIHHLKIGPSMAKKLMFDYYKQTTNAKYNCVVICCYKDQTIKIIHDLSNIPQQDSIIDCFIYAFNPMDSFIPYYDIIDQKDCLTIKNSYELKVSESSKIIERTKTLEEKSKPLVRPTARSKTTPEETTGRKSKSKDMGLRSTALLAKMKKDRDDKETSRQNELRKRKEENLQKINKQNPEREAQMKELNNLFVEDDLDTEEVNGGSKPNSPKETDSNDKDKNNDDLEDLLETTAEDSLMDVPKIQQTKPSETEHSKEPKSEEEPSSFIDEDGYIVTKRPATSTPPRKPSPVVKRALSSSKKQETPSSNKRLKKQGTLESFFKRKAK

Columns and labels:
[1] = molecular target: Rev3, catalytic subunit of DNA polymerase ζ (GST-Rev3) (S. cerevisiae) (UniProt P14284); assay: pull-down; co-purification from yeast overproducing GST-Rev3, Rev7, Pol31 and 7xHis-Pol32: glutathione Sepharose 4B (washes with 300, 200, 100 mM KCl), glutathione elution, GST cleaved with PreScission, then Ni-IMAC; 4 °C; subunits seen on Coomassie gel
[2] = molecular target: T1, Rev3-ΔCTD (GST-Rev3-ΔCTD), Rev3 lacking amino acids 1381-1504 (S. cerevisiae) (UniProt P14284); assay: pull-down; co-purification from yeast overproducing GST-Rev3-ΔC, Rev7, Pol31 and 7xHis-Pol32: glutathione Sepharose 4B, glutathione elution, GST cleaved with PreScission, then Mono S column instead of Ni-IMAC; 4 °C; bands seen on Coomassie gel
T1 sequence: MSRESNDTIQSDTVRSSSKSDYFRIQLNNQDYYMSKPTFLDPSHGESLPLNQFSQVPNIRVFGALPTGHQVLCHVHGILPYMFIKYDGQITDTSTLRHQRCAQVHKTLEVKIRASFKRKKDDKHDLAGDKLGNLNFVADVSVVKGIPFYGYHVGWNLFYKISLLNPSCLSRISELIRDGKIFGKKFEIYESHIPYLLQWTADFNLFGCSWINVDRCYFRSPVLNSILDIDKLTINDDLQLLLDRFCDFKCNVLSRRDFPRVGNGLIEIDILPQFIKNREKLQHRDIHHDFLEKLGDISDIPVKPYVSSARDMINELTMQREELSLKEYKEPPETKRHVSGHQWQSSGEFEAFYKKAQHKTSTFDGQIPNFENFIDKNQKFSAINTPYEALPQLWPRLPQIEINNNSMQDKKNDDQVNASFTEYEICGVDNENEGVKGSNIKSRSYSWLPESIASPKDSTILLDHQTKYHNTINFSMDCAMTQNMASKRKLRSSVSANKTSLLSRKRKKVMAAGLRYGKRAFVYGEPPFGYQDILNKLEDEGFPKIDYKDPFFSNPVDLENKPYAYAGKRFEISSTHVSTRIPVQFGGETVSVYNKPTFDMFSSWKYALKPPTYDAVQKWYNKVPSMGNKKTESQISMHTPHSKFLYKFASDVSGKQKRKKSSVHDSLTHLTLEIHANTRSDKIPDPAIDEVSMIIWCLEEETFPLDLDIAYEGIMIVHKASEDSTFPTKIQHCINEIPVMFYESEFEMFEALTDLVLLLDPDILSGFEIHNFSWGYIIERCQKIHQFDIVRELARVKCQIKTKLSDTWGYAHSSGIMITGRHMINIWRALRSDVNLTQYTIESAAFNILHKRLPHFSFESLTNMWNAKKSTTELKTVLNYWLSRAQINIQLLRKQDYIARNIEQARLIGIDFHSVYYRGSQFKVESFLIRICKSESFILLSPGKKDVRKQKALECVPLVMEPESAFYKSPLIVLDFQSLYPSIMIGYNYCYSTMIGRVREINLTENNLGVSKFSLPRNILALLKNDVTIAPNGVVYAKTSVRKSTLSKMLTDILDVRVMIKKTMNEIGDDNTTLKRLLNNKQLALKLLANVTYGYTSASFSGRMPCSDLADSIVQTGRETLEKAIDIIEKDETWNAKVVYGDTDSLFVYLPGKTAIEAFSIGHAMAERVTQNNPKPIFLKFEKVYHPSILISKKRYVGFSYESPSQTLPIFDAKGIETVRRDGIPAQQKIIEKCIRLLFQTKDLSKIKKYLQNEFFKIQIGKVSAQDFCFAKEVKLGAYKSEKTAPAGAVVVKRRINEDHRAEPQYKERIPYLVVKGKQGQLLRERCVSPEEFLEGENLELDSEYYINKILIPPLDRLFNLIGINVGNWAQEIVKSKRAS

binding [1]: binds
Molecule: Pol32, accessory subunit shared by pol ζ and pol δ (7xHIS_POL32) (from UniProt P47110 1-350)

binding [2]: binds | binding [1]: binds
B1: Rev7, accessory subunit of DNA polymerase ζ (protein, UniProt P38927 1-245)
chain: MNRWVEKWLRVYLKCYINLILFYRNVYPPQSFDYTTYQSFNLPQFVPINRHPALIDYIEELILDVLSKLTHVYRFSICIINKKNDLCIEKYVLDFSELQHVDKDDQIITETEVFDEFRSSLNSLIMHLEKLPKVNDDTITFEAVINAIELELGHKLDRNRRVDSLEEKAEIERDSNWVKCQEDENLPDNNGFQPPKIKLTSLVGSDVGPLIIHQFSEKLISGDDKILNGVYSQYEEGESIFGSLF

binding [1]: binds
B2: Pol31, accessory subunit shared by pol ζ and pol δ (protein, UniProt P46957 1-487)
chain: MDALLTKFNEDRSLQDENLSQPRTRVRIVDDNLYNKSNPFQLCYKKRDYGSQYYHIYQYRLKTFRERVLKECDKRWDAGFTLNGQLVLKKDKVLDIQGNQPCWCVGSIYCEMKYKPNVLDEVINDTYGAPDLTKSYTDKEGGSDEIMLEDESGRVLLVGDFIRSTPFITGVVVGILGMEAEAGTFQVLDICYPTPLPQNPFPAPIATCPTRGKIALVSGLNLNNTSPDRLLRLEILREFLMGRINNKIDDISLIGRLLICGNSVDFDIKSVNKDELMISLTEFSKFLHNILPSISVDIMPGTNDPSDKSLPQQPFHKSLFDKSLESYFNGSNKEILNLVTNPYEFSYNGVDVLAVSGKNINDICKYVIPSNDNGESENKVEEGESNDFKDDIEHRLDLMECTMKWQNIAPTAPDTLWCYPYTDKDPFVLDKWPHVYIVANQPYFGTRVVEIGGKNIKIISVPEFSSTGMIILLDLETLEAETVKIDI
